# These are yes or no findings as the source states them, for the method shown. Binding seen in cells or lysates may run through a third protein. Some entries that bind do so weakly or less than the wild type.
# The chains behind the UniProt entries cited, without tags or fusion partners.
# UniProt P35631: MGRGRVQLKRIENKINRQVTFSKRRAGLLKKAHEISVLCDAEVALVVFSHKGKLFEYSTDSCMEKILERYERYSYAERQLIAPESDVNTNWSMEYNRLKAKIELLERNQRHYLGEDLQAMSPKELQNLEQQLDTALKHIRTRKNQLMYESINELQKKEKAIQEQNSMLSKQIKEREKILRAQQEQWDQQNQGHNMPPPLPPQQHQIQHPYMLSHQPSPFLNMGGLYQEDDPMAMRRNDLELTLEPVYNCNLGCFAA
# UniProt Q8W234: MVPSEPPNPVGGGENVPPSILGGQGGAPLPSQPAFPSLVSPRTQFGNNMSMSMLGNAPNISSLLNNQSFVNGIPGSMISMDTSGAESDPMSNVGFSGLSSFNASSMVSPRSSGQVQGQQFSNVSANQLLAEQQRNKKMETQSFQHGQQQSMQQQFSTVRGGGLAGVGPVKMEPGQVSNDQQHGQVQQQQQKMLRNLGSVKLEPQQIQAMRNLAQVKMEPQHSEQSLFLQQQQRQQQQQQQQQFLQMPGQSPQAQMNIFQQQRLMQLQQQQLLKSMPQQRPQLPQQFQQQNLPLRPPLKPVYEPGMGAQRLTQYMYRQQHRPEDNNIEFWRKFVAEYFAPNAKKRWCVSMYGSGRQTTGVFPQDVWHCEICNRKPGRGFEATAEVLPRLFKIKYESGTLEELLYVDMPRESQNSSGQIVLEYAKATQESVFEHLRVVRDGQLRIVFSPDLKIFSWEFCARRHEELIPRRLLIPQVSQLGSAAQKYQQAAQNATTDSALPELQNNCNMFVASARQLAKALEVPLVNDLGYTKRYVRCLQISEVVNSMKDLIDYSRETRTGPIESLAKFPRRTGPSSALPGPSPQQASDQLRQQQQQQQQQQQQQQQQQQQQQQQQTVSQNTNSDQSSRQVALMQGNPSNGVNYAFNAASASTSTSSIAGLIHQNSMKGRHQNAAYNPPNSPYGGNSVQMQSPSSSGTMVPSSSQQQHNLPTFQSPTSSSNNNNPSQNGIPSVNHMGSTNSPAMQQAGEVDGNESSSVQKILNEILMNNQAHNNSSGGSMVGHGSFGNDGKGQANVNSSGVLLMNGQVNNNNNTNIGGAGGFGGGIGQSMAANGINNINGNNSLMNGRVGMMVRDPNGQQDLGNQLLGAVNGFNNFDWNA
# Columns and labels:
# [1] = target: APETALA1 (AP1), in vitro translated (Arabidopsis thaliana) (UniProt P35631); test: co-IP; in vitro: proteins co-synthesized in one tube in wheat germ extract with biotinylated lysine; AP1 or SEP3 as bait precipitated with AP1 or SEP3 antibodies, Protein A MicroBeads, 4°C; Western blot with Streptavidin-Alkaline Phosphatase
# [2] = target: …3 (SEP3), in vitro translated (Arabidopsis thaliana) (UniProt O22456); test: as above
substance,measurement,setting,value
"full-length SEU protein, in vitro translated (from UniProt Q8W234 1-877)",binding,[1],binds
same,binding,[2],binds

# From PMC12643531
